Measured values taken from article PMC4373128.
Results are given in words; binding and its absence hold for the method and conditions named. In cells and extracts the contact can be indirect. Some binding calls cover weakened binding; strength is not graded here.

Protein sequences, listed by entry. Tags and fused reporters are not part of them.
UniProt P33527: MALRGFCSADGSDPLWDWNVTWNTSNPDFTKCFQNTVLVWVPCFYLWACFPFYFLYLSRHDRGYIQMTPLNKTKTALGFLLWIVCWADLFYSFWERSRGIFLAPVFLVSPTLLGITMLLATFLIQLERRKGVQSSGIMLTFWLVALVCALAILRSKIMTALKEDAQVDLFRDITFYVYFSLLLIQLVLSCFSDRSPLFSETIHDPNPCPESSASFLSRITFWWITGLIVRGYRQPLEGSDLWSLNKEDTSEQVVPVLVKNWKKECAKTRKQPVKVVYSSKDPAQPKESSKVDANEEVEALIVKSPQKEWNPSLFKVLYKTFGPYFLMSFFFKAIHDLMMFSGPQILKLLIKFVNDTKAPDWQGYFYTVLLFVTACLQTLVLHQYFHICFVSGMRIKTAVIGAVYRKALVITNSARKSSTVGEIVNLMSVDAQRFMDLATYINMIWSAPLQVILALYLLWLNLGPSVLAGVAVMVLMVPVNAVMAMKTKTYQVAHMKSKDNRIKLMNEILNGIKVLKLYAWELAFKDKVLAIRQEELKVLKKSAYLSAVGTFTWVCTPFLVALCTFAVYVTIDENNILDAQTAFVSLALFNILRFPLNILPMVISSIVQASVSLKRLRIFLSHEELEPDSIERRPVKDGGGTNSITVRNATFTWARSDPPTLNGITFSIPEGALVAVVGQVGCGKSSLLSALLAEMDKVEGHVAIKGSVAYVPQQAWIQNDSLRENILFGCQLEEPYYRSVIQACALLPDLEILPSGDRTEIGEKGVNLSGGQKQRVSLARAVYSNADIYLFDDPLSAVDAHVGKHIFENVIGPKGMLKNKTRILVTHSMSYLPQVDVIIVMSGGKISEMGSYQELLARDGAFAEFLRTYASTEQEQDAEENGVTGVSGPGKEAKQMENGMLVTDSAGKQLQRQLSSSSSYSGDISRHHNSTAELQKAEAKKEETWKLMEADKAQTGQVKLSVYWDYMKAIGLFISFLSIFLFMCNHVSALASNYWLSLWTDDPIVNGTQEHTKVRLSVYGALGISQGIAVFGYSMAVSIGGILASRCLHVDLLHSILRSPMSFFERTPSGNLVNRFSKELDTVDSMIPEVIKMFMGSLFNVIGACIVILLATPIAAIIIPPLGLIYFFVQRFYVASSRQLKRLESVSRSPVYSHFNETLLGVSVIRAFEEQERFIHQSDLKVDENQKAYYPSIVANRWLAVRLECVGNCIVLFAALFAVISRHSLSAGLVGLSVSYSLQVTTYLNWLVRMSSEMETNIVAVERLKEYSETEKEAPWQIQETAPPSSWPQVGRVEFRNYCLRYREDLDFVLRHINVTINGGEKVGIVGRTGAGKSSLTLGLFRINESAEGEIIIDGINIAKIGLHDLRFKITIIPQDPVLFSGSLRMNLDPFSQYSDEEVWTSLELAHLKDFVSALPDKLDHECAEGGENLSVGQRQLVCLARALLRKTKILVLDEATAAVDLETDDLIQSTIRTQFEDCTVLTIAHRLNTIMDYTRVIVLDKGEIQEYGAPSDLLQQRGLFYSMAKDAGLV

Molecular target: T1, inwardly rectifying potassium channel Kir2.1 (KCNJ2) (human (endogenous in H69)) (UniProt P63252)
T1 sequence: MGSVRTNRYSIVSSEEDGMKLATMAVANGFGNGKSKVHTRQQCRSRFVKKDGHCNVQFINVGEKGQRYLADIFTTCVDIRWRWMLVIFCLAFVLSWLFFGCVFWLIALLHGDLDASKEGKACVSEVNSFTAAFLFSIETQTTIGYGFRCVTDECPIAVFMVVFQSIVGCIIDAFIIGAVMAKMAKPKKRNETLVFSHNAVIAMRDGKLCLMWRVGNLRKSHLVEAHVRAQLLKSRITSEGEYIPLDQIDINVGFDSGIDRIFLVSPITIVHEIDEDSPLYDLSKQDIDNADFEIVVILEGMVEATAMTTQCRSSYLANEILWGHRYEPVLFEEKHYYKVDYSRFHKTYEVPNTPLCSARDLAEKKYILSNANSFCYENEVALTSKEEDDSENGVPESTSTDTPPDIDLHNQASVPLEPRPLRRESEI
Experiment: co-IP; H69 cell lysate (20 mM Tris pH 7.4, 50 mM NaCl, 1 mM EDTA, 0.5% NP-40, 0.5% SDS, 0.5% deoxycholate) precipitated with rabbit anti-Kir2.1 antibody overnight at 4°C; rabbit non-specific IgG as control; blotted with anti-ABCC1 and anti-Kir2.1

multidrug resistance protein 1 (MRP1/ABCC1) (from UniProt P33527 1-1531)
binding: binds
